According to publication PMC8384837:
Changes are numbered by the printed parent chain. Some of the results follow. At the low end of the ranking the order means little.

Legend:
Conditions in all cases: yeast three-hybrid, YBZ-1, SC-Leu-His + 0.5 mM 3-AT, 4 days
[1] = molecular target: T1, PUM1 PUF domain R3-ATE C935A + R936T + Q939E (UniProt Q14671)
T1 sequence: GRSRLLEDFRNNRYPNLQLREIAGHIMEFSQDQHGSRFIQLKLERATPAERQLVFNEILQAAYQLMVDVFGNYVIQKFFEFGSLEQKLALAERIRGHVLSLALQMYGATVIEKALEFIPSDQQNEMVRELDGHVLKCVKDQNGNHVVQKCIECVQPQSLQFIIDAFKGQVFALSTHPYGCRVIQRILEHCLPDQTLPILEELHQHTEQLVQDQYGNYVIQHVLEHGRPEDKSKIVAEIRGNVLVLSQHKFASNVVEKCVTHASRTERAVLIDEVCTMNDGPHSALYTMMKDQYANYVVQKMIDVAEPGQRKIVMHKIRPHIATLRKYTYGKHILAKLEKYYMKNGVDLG

[2] = molecular target: T2, PUM1 PUF domain R3-FRT C935F + Q939T (UniProt Q14671)
T2 sequence: T1 sequence with A108F, T109R, E112T

[3] = molecular target: T3, PUM1 PUF domain R3-FSK C935F + R936S + Q939K (UniProt Q14671)
T3 sequence: T1 sequence with A108F, T109S, E112K

[4] = molecular target: T4, PUM1 PUF domain R3-GIR C935G + R936I + Q939R (UniProt Q14671)
T4 sequence: T1 sequence with A108G, T109I, E112R

[5] = molecular target: T5, PUM1 PUF domain R3-LRG C935L + Q939G (UniProt Q14671)
T5 sequence: T1 sequence with A108L, T109R, E112G

[6] = molecular target: T6, PUM1 PUF domain R3-LSS C935L + R936S + Q939S (UniProt Q14671)
T6 sequence: T1 sequence with A108L, T109S, E112S

[7] = molecular target: T7, PUM1 PUF domain R3-LST C935L + R936S + Q939T (UniProt Q14671)
T7 sequence: T1 sequence with A108L, T109S, E112T

[8] = molecular target: T8, PUM1 PUF domain R3-RAA C935R + R936A + Q939A (UniProt Q14671)
T8 sequence: T1 sequence with A108R, T109A, E112A

[9] = molecular target: T9, PUM1 PUF domain R3-RDR C935R + R936D + Q939R (UniProt Q14671)
T9 sequence: T1 sequence with A108R, T109D, E112R

[10] = molecular target: T10, PUM1 PUF domain R3-RIS C935R + R936I + Q939S (UniProt Q14671)
T10 sequence: T1 sequence with A108R, T109I, E112S

[11] = molecular target: T11, PUM1 PUF domain R3-RQG C935R + R936Q + Q939G (UniProt Q14671)
T11 sequence: T1 sequence with A108R, T109Q, E112G

[12] = molecular target: T12, PUM1 PUF domain R3-RTC C935R + R936T + Q939C (UniProt Q14671)
T12 sequence: T1 sequence with A108R, E112C

[13] = molecular target: T13, PUM1 PUF domain R3-RTG C935R + R936T + Q939G (UniProt Q14671)
T13 sequence: T1 sequence with A108R, E112G

[14] = molecular target: T14, PUM1 PUF domain R3-RTV C935R + R936T + Q939V (UniProt Q14671)
T14 sequence: T1 sequence with A108R, E112V

[15] = molecular target: T15, PUM1 PUF domain R3-RVA C935R + R936V + Q939A (UniProt Q14671)
T15 sequence: T1 sequence with A108R, T109V, E112A

[16] = molecular target: T16, PUM1 PUF domain R3-RVS C935R + R936V + Q939S (UniProt Q14671)
T16 sequence: T1 sequence with A108R, T109V, E112S

[17] = molecular target: T17, PUM1 PUF domain R3-RVT C935R + R936V + Q939T (UniProt Q14671)
T17 sequence: T1 sequence with A108R, T109V, E112T

[18] = molecular target: T18, PUM1 PUF domain R3-SSD C935S + R936S + Q939D (UniProt Q14671)
T18 sequence: T1 sequence with A108S, T109S, E112D

[19] = molecular target: T19, PUM1 PUF domain R3-YSV C935Y + R936S + Q939V (UniProt Q14671)
T19 sequence: T1 sequence with A108Y, T109S, E112V

[20] = molecular target: T20, PUM1 PUF domain R3-YWW C935Y + R936W + Q939W (UniProt Q14671)
T20 sequence: T1 sequence with A108Y, T109W, E112W

“GGCUAGAACUAGUGGAUCCCCCGGCGCCCGGCGGCUCGAGCCCGGGUAAGUGUAAAUAGUCUGCAUGCCGCCGGGCGCCAUGCCUGCAGGUCGACUCUAGAAAACAUG” gave a binding signal (log2 enrichment (interaction score)) [1] of -3.76, a binding signal (log2 enrichment (interaction score)) [2] of -4.12 and a binding signal (log2 enrichment (interaction score)) [3] of -4.28. For the same sequence, the binding signal (log2 enrichment (interaction score)) [4] was -4.93, the binding signal (log2 enrichment (interaction score)) [5] was -4.61 and the binding signal (log2 enrichment (interaction score)) [6] was -4.17. For the same sequence, the binding signal (log2 enrichment (interaction score)) [7] was -3.93, the binding signal (log2 enrichment (interaction score)) [8] was -3.81 and the binding signal (log2 enrichment (interaction score)) [9] was -4.55. For the same sequence, the binding signal (log2 enrichment (interaction score)) [10] was -4.29, the binding signal (log2 enrichment (interaction score)) [11] was less than -7.21 and the binding signal (log2 enrichment (interaction score)) [12] was -4.5. It also gave a binding signal (log2 enrichment (interaction score)) [13] of -5.33, a binding signal (log2 enrichment (interaction score)) [14] of -4.4 and a binding signal (log2 enrichment (interaction score)) [15] of -4.76. It also gave a binding signal (log2 enrichment (interaction score)) [16] of -4.63, a binding signal (log2 enrichment (interaction score)) [17] of -5.34 and a binding signal (log2 enrichment (interaction score)) [18] of -5.08. It also gave a binding signal (log2 enrichment (interaction score)) [19] of less than -9.84 and a binding signal (log2 enrichment (interaction score)) [20] of less than -6.41.
